# Results reported in the supplement of paper PMC11438910.
# The other results are listed elsewhere or left out. Only a few entries rise above the background.
# What was measured:
# Assay in all cases: fluorescence intensity of antibody binding to polysaccharide-coupled beads; higher = stronger binding
# [1] = biological target: pneumococcal polysaccharide Pn19B
# [2] = biological target: pneumococcal polysaccharide Pn19C
# [3] = biological target: pneumococcal polysaccharide Pn19F
# [4] = biological target: pneumococcal polysaccharide Pn2
# [5] = biological target: pneumococcal polysaccharide Pn20A
# [6] = biological target: pneumococcal polysaccharide Pn20B
# [7] = biological target: pneumococcal polysaccharide Pn21
# [8] = biological target: pneumococcal polysaccharide Pn22A
# [9] = biological target: pneumococcal polysaccharide Pn22F
# [10] = biological target: pneumococcal polysaccharide Pn23A
# [11] = biological target: pneumococcal polysaccharide Pn23B
# [12] = biological target: pneumococcal polysaccharide Pn23F
# [13] = biological target: pneumococcal polysaccharide Pn24A
# [14] = antibody concentration 0.1 ng/mL
# [15] = antibody concentration 0.534724 ng/mL
# [16] = antibody concentration 2.8593 ng/mL
# [17] = antibody concentration 15.2894 ng/mL
# [18] = antibody concentration 81.7561 ng/mL
# [19] = antibody concentration 437.17 ng/mL
# [20] = antibody concentration 2337.65 ng/mL
binder,measurement,setting,value
3S41.1 (protein) chain 1: EVQLVESGGGLVQPGGSLRLSCATSGFTFRNYWMYWFRQAPGKGLDWVSSISDSSSNTFYSDSVKGRFTISRDNAKNTLYLQMNSLRAEDTAVYYCARRPIAAATGVYWYFDLWGPGTPITVSS chain 2: EIVMTQSPATLSLSPGERATLSCRASQNIGSNLAWYQQKPGRAPKLLIYDASSRATGIPDRFSASGSGTDFTLTISSLEPEDVGVYYCQQYNNWKIFGPGTKLEIK,fluorescence intensity,[1]; [14],29.8 MFI
same,fluorescence intensity,[1]; [15],30 MFI
same,fluorescence intensity,[1]; [16],27.5 MFI
same,fluorescence intensity,[1]; [17],27 MFI
same,fluorescence intensity,[1]; [18],28 MFI
same,fluorescence intensity,[1]; [19],30.8 MFI
same,fluorescence intensity,[1]; [20],36 MFI
same,fluorescence intensity,[2]; [14],25 MFI
same,fluorescence intensity,[2]; [15],24.8 MFI
same,fluorescence intensity,[2]; [16],26.2 MFI
same,fluorescence intensity,[2]; [17],25 MFI
same,fluorescence intensity,[2]; [18],25 MFI
same,fluorescence intensity,[2]; [19],26.5 MFI
same,fluorescence intensity,[2]; [20],31 MFI
same,fluorescence intensity,[3]; [14],25 MFI
same,fluorescence intensity,[3]; [15],25 MFI
same,fluorescence intensity,[3]; [16],25.8 MFI
same,fluorescence intensity,[3]; [17],25.5 MFI
same,fluorescence intensity,[3]; [18],24.2 MFI
same,fluorescence intensity,[3]; [19],26 MFI
same,fluorescence intensity,[3]; [20],29.8 MFI
same,fluorescence intensity,[4]; [14],18.8 MFI
same,fluorescence intensity,[4]; [15],20 MFI
same,fluorescence intensity,[4]; [16],20.5 MFI
same,fluorescence intensity,[4]; [17],18.8 MFI
same,fluorescence intensity,[4]; [18],19.5 MFI
same,fluorescence intensity,[4]; [19],21.5 MFI
same,fluorescence intensity,[4]; [20],23.5 MFI
same,fluorescence intensity,[5]; [14],23 MFI
same,fluorescence intensity,[5]; [15],22 MFI
same,fluorescence intensity,[5]; [16],23 MFI
same,fluorescence intensity,[5]; [17],22.5 MFI
same,fluorescence intensity,[5]; [18],23.8 MFI
same,fluorescence intensity,[5]; [19],22 MFI
same,fluorescence intensity,[5]; [20],28 MFI
same,fluorescence intensity,[6]; [14],23.8 MFI
same,fluorescence intensity,[6]; [15],24 MFI
same,fluorescence intensity,[6]; [16],23.5 MFI
same,fluorescence intensity,[6]; [17],23 MFI
same,fluorescence intensity,[6]; [18],23 MFI
same,fluorescence intensity,[6]; [19],23 MFI
same,fluorescence intensity,[6]; [20],26 MFI
same,fluorescence intensity,[7]; [14],20 MFI
same,fluorescence intensity,[7]; [15],19.5 MFI
same,fluorescence intensity,[7]; [16],18.8 MFI
same,fluorescence intensity,[7]; [17],19 MFI
same,fluorescence intensity,[7]; [18],20 MFI
same,fluorescence intensity,[7]; [19],19 MFI
same,fluorescence intensity,[7]; [20],20.5 MFI
same,fluorescence intensity,[8]; [14],22.2 MFI
same,fluorescence intensity,[8]; [15],20.8 MFI
same,fluorescence intensity,[8]; [16],22.8 MFI
same,fluorescence intensity,[8]; [17],22.2 MFI
same,fluorescence intensity,[8]; [18],23 MFI
same,fluorescence intensity,[8]; [19],22 MFI
same,fluorescence intensity,[8]; [20],25.5 MFI
same,fluorescence intensity,[9]; [14],32.8 MFI
same,fluorescence intensity,[9]; [15],30.5 MFI
same,fluorescence intensity,[9]; [16],29.8 MFI
same,fluorescence intensity,[9]; [17],31 MFI
same,fluorescence intensity,[9]; [18],32.8 MFI
same,fluorescence intensity,[9]; [19],30.8 MFI
same,fluorescence intensity,[9]; [20],33 MFI
same,fluorescence intensity,[10]; [14],25.5 MFI
same,fluorescence intensity,[10]; [15],25 MFI
same,fluorescence intensity,[10]; [16],26.2 MFI
same,fluorescence intensity,[10]; [17],25.5 MFI
same,fluorescence intensity,[10]; [18],28 MFI
same,fluorescence intensity,[10]; [19],27.5 MFI
same,fluorescence intensity,[10]; [20],37.5 MFI
same,fluorescence intensity,[11]; [14],29.2 MFI
same,fluorescence intensity,[11]; [15],29.5 MFI
same,fluorescence intensity,[11]; [16],29 MFI
same,fluorescence intensity,[11]; [17],33.8 MFI
same,fluorescence intensity,[11]; [18],28.5 MFI
same,fluorescence intensity,[11]; [19],32 MFI
same,fluorescence intensity,[11]; [20],32.5 MFI
same,fluorescence intensity,[12]; [14],18 MFI
same,fluorescence intensity,[12]; [15],18.2 MFI
same,fluorescence intensity,[12]; [16],18 MFI
same,fluorescence intensity,[12]; [17],20 MFI
same,fluorescence intensity,[12]; [18],18.5 MFI
same,fluorescence intensity,[12]; [19],19 MFI
same,fluorescence intensity,[12]; [20],23 MFI
same,fluorescence intensity,[13]; [14],15 MFI
same,fluorescence intensity,[13]; [15],16.5 MFI
same,fluorescence intensity,[13]; [16],15 MFI
same,fluorescence intensity,[13]; [17],16 MFI
same,fluorescence intensity,[13]; [18],16 MFI
same,fluorescence intensity,[13]; [19],16 MFI

# Shown bar-delimited: part of the list above.
binder | measurement | setting | value
3S41.1 (protein) chain 1: EVQLVESGGGLVQPGGSLRLSCATSGFTFRNYWMYWFRQAPGKGLDWVSSISDSSSNTFYSDSVKGRFTISRDNAKNTLYLQMNSLRAEDTAVYYCARRPIAAATGVYWYFDLWGPGTPITVSS chain 2: EIVMTQSPATLSLSPGERATLSCRASQNIGSNLAWYQQKPGRAPKLLIYDASSRATGIPDRFSASGSGTDFTLTISSLEPEDVGVYYCQQYNNWKIFGPGTKLEIK | fluorescence intensity | [3]; [16] | 25.8 MFI
same | fluorescence intensity | [3]; [20] | 29.8 MFI
same | fluorescence intensity | [4]; [20] | 23.5 MFI
same | fluorescence intensity | [6]; [17] | 23 MFI
same | fluorescence intensity | [7]; [19] | 19 MFI
same | fluorescence intensity | [10]; [19] | 27.5 MFI
